Results reported in PMC3996665.
Results are given in words; binding and its absence hold for the method and conditions named. Binding seen in cells or lysates may run through a third protein. Some results given as binding are weak or reduced against the parent protein; the word gives no strength. Sequences can lack the tags named with a protein.

Target: T1, Myc-CDC25C (UniProt P30307)
T1 sequence: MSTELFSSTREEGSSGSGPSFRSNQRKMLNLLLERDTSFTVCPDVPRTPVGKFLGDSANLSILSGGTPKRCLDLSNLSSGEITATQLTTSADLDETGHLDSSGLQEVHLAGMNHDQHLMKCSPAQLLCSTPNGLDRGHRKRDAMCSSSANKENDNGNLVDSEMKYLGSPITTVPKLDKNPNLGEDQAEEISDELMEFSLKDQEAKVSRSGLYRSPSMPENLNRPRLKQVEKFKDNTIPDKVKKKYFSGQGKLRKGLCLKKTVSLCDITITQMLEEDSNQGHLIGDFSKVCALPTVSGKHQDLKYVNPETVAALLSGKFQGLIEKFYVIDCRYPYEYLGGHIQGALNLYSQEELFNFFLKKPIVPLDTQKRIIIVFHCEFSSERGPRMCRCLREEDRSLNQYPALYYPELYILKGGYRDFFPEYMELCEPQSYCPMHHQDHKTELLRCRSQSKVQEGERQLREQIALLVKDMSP
Assay: co-IP; extracts of IGR-CaP1 cells transfected with Myc-CDC25C (pCMV-CDC25C), 48h after transfection; immunoprecipitated with anti-CDC25C, immunoblotted with LZTS1 antibody

- binding: binds
B1: LZTS1 (protein, UniProt Q9Y250 1-596)
chain: MGSVSSLISGHSFHSKHCRASQYKLRKSSHLKKLNRYSDGLLRFGFSQDSGHGKSSSKMGKSEDFFYIKVSQKARGSHHPDYTALSSGDLGGQAGVDFDPSTPPKLMPFSNQLEMGSEKGAVRPTAFKPVLPRSGAILHSSPESASHQLHPAPPDKPKEQELKPGLCSGALSDSGRNSMSSLPTHSTSSSYQLDPLVTPVGPTSRFGGSAHNITQGIVLQDSNMMSLKALSFSDGGSKLGHSNKADKGPSCVRSPISTDECSIQELEQKLLEREGALQKLQRSFEEKELASSLAYEERPRRCRDELEGPEPKGGNKLKQASQKSQRAQQVLHLQVLQLQQEKRQLRQELESLMKEQDLLETKLRSYEREKTSFGPALEETQWEVCQKSGEISLLKQQLKESQTEVNAKASEILGLKAQLKDTRGKLEGLELRTQDLEGALRTKGLELEVCENELQRKKNEAELLREKVNLLEQELQELRAQAALARDMGPPTFPEDVPALQRELERLRAELREERQGHDQMSSGFQHERLVWKEEKEKVIQYQKQLQQSYVAMYQRNQRLEKALQQLARGDSAGEPLEVDLEGADIPYEDIIATEI
